Test results: patent US5169932A, “GnRH analogs” (The Salk Institute for Biological Studies, priority 1990, dated 1992)
Not every detail of the peptide structures is certain; ends, links or a residue may be inferred. Numbered stars: 1 amine (or outer) side, 2 acyl side, 3 side chain; on linkers, the order of the positions; unused ones are H or OH. Square brackets hold non-standard residues; d marks the D form. Peptide text beside a SMILES is read from it. dLys(Nε-C(NCN)NHBu) = CCCCNC(=NC#N)NCCCC[C@@H](N)C(=O)O; hArg(ω-Bu,ω'-CN) = CCCC/N=C(\NC#N)NCCCC[C@H](N)C(=O)O; X18 = CCCCNC(=NC#N)NCCC[C@@H](N[*:1])C(=O)[*:2]; X17 = CCCCNC(=NC#N)NCCC[C@H](N[*:1])C(=O)[*:2]; dPhe(4-Cl) = N[C@H](Cc1ccc(Cl)cc1)C(=O)O; d2Nal = N[C@H](Cc1ccc2ccccc2c1)C(=O)O; Lys(iPr) = CC(C)NCCCC[C@H](N)C(=O)O; d3Pal = N[C@H](Cc1cccnc1)C(=O)O

System: mature female Sprague-Dawley rats (ovulation)
Test: in vivo test of effectiveness to prevent ovulation in female rats
Design: species or system rat
Settings: injected at about noon on the day of proestrus, rats ovulating/rats treated

SMILES | Rats Ovulating (dosage 1.0 micrograms) | Rats Ovulating (dosage 2.5 micrograms) | Rats Ovulating (dosage 5.0 micrograms)
CCCCNC(=NC#N)NCCC[C@H](NC(=O)[C@H](CO)NC(=O)[C@@H](Cc1cccnc1)NC(=O)[C@@H](Cc1ccc(Cl)cc1)NC(=O)[C@@H](Cc1ccc2ccccc2c1)NC(C)=O)C(=O)N[C@H](CCCNC(=NC#N)NCCCC)C(=O)N[C@@H](CC(C)C)C(=O)N[C@@H](CCCCNC(C)C)C(=O)N1CCC[C@H]1C(=O)N[C@H](C)C(N)=O [Peptide 101] (Ac-[d2Nal][dPhe(4-Cl)][d3Pal]S[X17][X18]L[Lys(iPr)]P[dA]-NH2) | 5/8 | 0/5 | –
CCCCNC(=NC#N)NCCCC[C@@H](NC(=O)[C@@H](Cc1ccc(Cl)cc1)NC(=O)[C@@H](Cc1ccc2ccccc2c1)NC(C)=O)C(=O)N[C@@H](CO)C(=O)N[C@@H](CCCNC(=N)N)C(=O)N[C@H](Cc1ccc2ccccc2c1)C(=O)N[C@@H](CC(C)C)C(=O)N[C@@H](CCCNC(=N)N)C(=O)N1CCC[C@H]1C(=O)N[C@H](C)C(N)=O [Peptide 114] (Ac-[d2Nal][dPhe(4-Cl)][dLys(Nε-C(NCN)NHBu)]SR[d2Nal]LRP[dA]-NH2) | – | – | 4/5
CCCCNC(=NC#N)NCCCC[C@H](NC(=O)[C@H](CO)NC(=O)[C@@H](Cc1cccnc1)NC(=O)[C@@H](Cc1ccc(Cl)cc1)NC(=O)[C@@H](Cc1ccc2ccccc2c1)NC(C)=O)C(=O)N[C@H](Cc1ccc2ccccc2c1)C(=O)N[C@@H](CC(C)C)C(=O)N[C@@H](CCCCNC(C)C)C(=O)N1CCC[C@H]1C(=O)N[C@H](C)C(N)=O [Peptide 12] (Ac-[d2Nal][dPhe(4-Cl)][d3Pal]S[hArg(ω-Bu,ω'-CN)][d2Nal]L[Lys(iPr)]P[dA]-NH2) | – | 6/7 | –
CCCCNC(=NC#N)NCCCC[C@H](NC(=O)[C@H](CO)NC(=O)[C@@H](Cc1cccnc1)NC(=O)[C@@H](Cc1ccc(Cl)cc1)NC(=O)[C@@H](Cc1ccc2ccccc2c1)NC(C)=O)C(=O)N[C@H](CCCCNC(=NC#N)NCCCC)C(=O)N[C@@H](CC(C)C)C(=O)N[C@@H](CCCCNC(C)C)C(=O)N1CCC[C@H]1C(=O)N[C@H](C)C(N)=O [Peptide 96] (Ac-[d2Nal][dPhe(4-Cl)][d3Pal]S[hArg(ω-Bu,ω'-CN)][dLys(Nε-C(NCN)NHBu)]L[Lys(iPr)]P[dA]-NH2) | 9/12 | – | –
CCCCNC(=NC#N)NCCC[C@H](NC(=O)[C@H](CO)NC(=O)[C@@H](Cc1cccnc1)NC(=O)[C@@H](Cc1ccc(Cl)cc1)NC(=O)[C@@H](Cc1ccc2ccccc2c1)NC(C)=O)C(=O)N[C@H](Cc1ccc2ccccc2c1)C(=O)N[C@@H](CC(C)C)C(=O)N[C@@H](CCCCNC(C)C)C(=O)N1CCC[C@H]1C(=O)N[C@H](C)C(N)=O [Peptide 104] (Ac-[d2Nal][dPhe(4-Cl)][d3Pal]S[X17][d2Nal]L[Lys(iPr)]P[dA]-NH2) | – | 6/8 | –
